# Measured values published in the supplement of paper PMC8728848.
# The other results are listed elsewhere or left out.
# Key:
# Experiment in all cases: glycan array binding signal (z-score within array); higher = stronger binding
# Details in all cases: glycan notation: IUPAC condensed, linker removed
# [1] = target: GalNAc(a1-3)GalNAc(b1-3)Gal(a1-4)Gal(b1-4)GlcNAc
# Method in brief: (§1)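 Glycan array data came from 3228 arrays in the Consortium for Functional Glycomics database, and only arrays with an available protein sequence were kept. Glycan names were put into IUPAC-condensed notation, and columns mapping to the same glycan were averaged. The binding signal is a within-array Z-score, averaged across arrays of one protein sequence run at different concentrations or buffers and across linkers. A negative Z-score can be read as non-binding.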
# GalNAc(b1-3)Gal = target: GalNAc(b1-3)Gal
# Method in brief: as §1
# [2] = target: GalNAc(b1-3)Gal(a1-4)Gal(b1-4)GlcNAc
# Method in brief: as §1
# [3] = target: GalNAc(b1-3)Gal(a1-4)Gal(b1-4)GlcNAc(b1-3)Gal(b1-4)Glc
# Method in brief: as §1
# [4] = target: GalNAc(b1-3)Gal(a1-6)Gal(b1-4)Glc
# Method in brief: as §1
# GalNAc(b1-3)GalNAc = target: GalNAc(b1-3)GalNAc
# Method in brief: as §1
# GalNAc(b1-3)GlcNAc = target: GalNAc(b1-3)GlcNAc
# Method in brief: as §1
# GalNAc(b1-4)Gal(b1-4)Glc = target: GalNAc(b1-4)Gal(b1-4)Glc
# Method in brief: as §1
# GalNAc(b1-4)GlcNAc = target: GalNAc(b1-4)GlcNAc
# Method in brief: as §1
# [5] = target: GalNAc(b1-4)GlcNAc(b1-2)Man
# Method in brief: as §1
# [6] = target: GalNAc(b1-4)GlcNAc(b1-2)Man(a1-3)[GalNAc(b1-4)GlcNAc(b1-2)Man(a1-6)]Man(b1-4)GlcNAc(b1-4)GlcNAc
# Method in brief: as §1
# [7] = target: GalNAc(b1-4)GlcNAc(b1-3)GalNAc(b1-4)GlcNAc
# Method in brief: as §1
# GalNAc(b1-4)GlcNAc6S = target: GalNAc(b1-4)GlcNAc6S
# Method in brief: as §1
# GalNAc(b1-6)GalNAc = target: GalNAc(b1-6)GalNAc
# Method in brief: as §1
# GalNAc3S(b1-4)GlcNAc = target: GalNAc3S(b1-4)GlcNAc
# Method in brief: as §1
# GalNAc3S(b1-4)GlcNAc3S = target: GalNAc3S(b1-4)GlcNAc3S
# Method in brief: as §1
# [8] = target: GalNAc3S(b1-4)[Fuc(a1-3)]GlcNAc
# Method in brief: as §1
# GalNAc4S6S(b1-4)GlcNAc = target: GalNAc4S6S(b1-4)GlcNAc
# Method in brief: as §1
# GalNAc6S(b1-4)GlcNAc = target: GalNAc6S(b1-4)GlcNAc
# Method in brief: as §1
# Glc(a1-4)Glc = target: Glc(a1-4)Glc
# Method in brief: as §1
# [9] = target: Glc(a1-4)Glc(a1-4)Glc(a1-4)Glc
# Method in brief: as §1
# Glc(a1-6)Glc(a1-6)Glc = target: Glc(a1-6)Glc(a1-6)Glc
# Method in brief: as §1
# [10] = target: Glc(a1-6)Glc(a1-6)Glc(a1-6)Glc
# Method in brief: as §1
# Glc(b1-4)Glc = target: Glc(b1-4)Glc
# Method in brief: as §1
# Glc(b1-6)Glc = target: Glc(b1-6)Glc
# Method in brief: as §1
# GlcA(b1-3)Gal = target: GlcA(b1-3)Gal
# Method in brief: as §1
# GlcA(b1-3)GlcNAc = target: GlcA(b1-3)GlcNAc
# Method in brief: as §1
# GlcA(b1-6)Gal = target: GlcA(b1-6)Gal
# Method in brief: as §1
# [11] = target: GlcA3S(b1-3)Gal(b1-4)GlcNAc(b1-2)Man
# Method in brief: as §1
# [12] = target: GlcA3S(b1-3)Gal(b1-4)GlcNAc(b1-3)Gal(b1-4)Glc
# Method in brief: as §1
# [13] = target: GlcNAc(a1-3)Gal(b1-4)GlcNAc
# Method in brief: as §1
# [14] = target: GlcNAc(a1-4)Gal(b1-3)GlcNAc
# Method in brief: as §1
# [15] = target: GlcNAc(a1-4)Gal(b1-4)GalNAc
# Method in brief: as §1
# [16] = target: GlcNAc(a1-4)Gal(b1-4)GlcNAc
# Method in brief: as §1
# [17] = target: GlcNAc(a1-4)Gal(b1-4)GlcNAc(b1-3)Gal(b1-4)Glc
# Method in brief: as §1
# [18] = target: GlcNAc(a1-4)Gal(b1-4)GlcNAc(b1-3)Gal(b1-4)GlcNAc
# Method in brief: as §1
# [19] = target: GlcNAc(a1-4)Gal(b1-4)GlcNAc(b1-3)Gal(b1-4)GlcNAc(b1-3)Gal(b1-4)GlcNAc
# Method in brief: as §1
# [20] = target: GlcNAc(a1-4)Gal(b1-4)GlcNAc(b1-3)Gal(b1-4)[Fuc(a1-3)]GlcNAc(b1-3)Gal(b1-4)[Fuc(a1-3)]GlcNAc
# Method in brief: as §1
binder,measurement,setting,value
LlpA (Arthrobacter sp) (protein) MGSSHHHHHHSSGLVPRGSHMTLHPETALRPGAAATSPNSRYRLLYQTDGNLVLYGPDGPLWDSGTNGHGAGACIMQADGNLVLYGPNDEYVWDTETDNNPGSRLVIQDDGNAVIYRPDGSPLWATETCQPPGSADSHVLQSGSTLTPTHGIRSANGLYGLLYQTDGNLVFYGPDGPLWDSGTNGRGAGACIMQPDGNLVLYGPHDEYVWDTETDNNPGSRLVIQDDGNAVIYRPDGNPTWVTGTH,glycan array binding signal (z-score),[1],-0.155
same,glycan array binding signal (z-score),GalNAc(b1-3)Gal,0.69
same,glycan array binding signal (z-score),[2],0.987
same,glycan array binding signal (z-score),[3],1.14
same,glycan array binding signal (z-score),[4],-1.19
same,glycan array binding signal (z-score),GalNAc(b1-3)GalNAc,-0.008
same,glycan array binding signal (z-score),GalNAc(b1-3)GlcNAc,-0.836
same,glycan array binding signal (z-score),GalNAc(b1-4)Gal(b1-4)Glc,0.858
same,glycan array binding signal (z-score),GalNAc(b1-4)GlcNAc,1.06
same,glycan array binding signal (z-score),[5],0.023
same,glycan array binding signal (z-score),[6],-0.231
same,glycan array binding signal (z-score),[7],-0.389
same,glycan array binding signal (z-score),GalNAc(b1-4)GlcNAc6S,0.851
same,glycan array binding signal (z-score),GalNAc(b1-6)GalNAc,-0.224
same,glycan array binding signal (z-score),GalNAc3S(b1-4)GlcNAc,0.127
same,glycan array binding signal (z-score),GalNAc3S(b1-4)GlcNAc3S,1.09
same,glycan array binding signal (z-score),[8],-0.304
same,glycan array binding signal (z-score),GalNAc4S6S(b1-4)GlcNAc,0.428
same,glycan array binding signal (z-score),GalNAc6S(b1-4)GlcNAc,-0.863
same,glycan array binding signal (z-score),Glc(a1-4)Glc,0.07
same,glycan array binding signal (z-score),[9],0.908
same,glycan array binding signal (z-score),Glc(a1-6)Glc(a1-6)Glc,-0.331
same,glycan array binding signal (z-score),[10],-0.723
same,glycan array binding signal (z-score),Glc(b1-4)Glc,-0.525
same,glycan array binding signal (z-score),Glc(b1-6)Glc,-1.07
same,glycan array binding signal (z-score),GlcA(b1-3)Gal,-0.288
same,glycan array binding signal (z-score),GlcA(b1-3)GlcNAc,-0.445
same,glycan array binding signal (z-score),GlcA(b1-6)Gal,0.793
same,glycan array binding signal (z-score),[11],-0.071
same,glycan array binding signal (z-score),[12],-0.598
same,glycan array binding signal (z-score),[13],0.79
same,glycan array binding signal (z-score),[14],-1.22
same,glycan array binding signal (z-score),[15],-1.04
same,glycan array binding signal (z-score),[16],-0.236
same,glycan array binding signal (z-score),[17],0.389
same,glycan array binding signal (z-score),[18],0.201
same,glycan array binding signal (z-score),[19],-0.479
same,glycan array binding signal (z-score),[20],1.36

# Reformatted as tab-separated lines: part of the list above
binder	measurement	setting	value
LlpA (Arthrobacter sp) (protein) MGSSHHHHHHSSGLVPRGSHMTLHPETALRPGAAATSPNSRYRLLYQTDGNLVLYGPDGPLWDSGTNGHGAGACIMQADGNLVLYGPNDEYVWDTETDNNPGSRLVIQDDGNAVIYRPDGSPLWATETCQPPGSADSHVLQSGSTLTPTHGIRSANGLYGLLYQTDGNLVFYGPDGPLWDSGTNGRGAGACIMQPDGNLVLYGPHDEYVWDTETDNNPGSRLVIQDDGNAVIYRPDGNPTWVTGTH	glycan array binding signal (z-score)	GalNAc(b1-4)Gal(b1-4)Glc	0.858
same	glycan array binding signal (z-score)	GalNAc(b1-4)GlcNAc	1.06
same	glycan array binding signal (z-score)	[5]	0.023
same	glycan array binding signal (z-score)	[6]	-0.231
same	glycan array binding signal (z-score)	[7]	-0.389
same	glycan array binding signal (z-score)	GalNAc(b1-4)GlcNAc6S	0.851
same	glycan array binding signal (z-score)	GalNAc(b1-6)GalNAc	-0.224
same	glycan array binding signal (z-score)	GalNAc3S(b1-4)GlcNAc	0.127
same	glycan array binding signal (z-score)	GalNAc3S(b1-4)GlcNAc3S	1.09
same	glycan array binding signal (z-score)	[8]	-0.304
same	glycan array binding signal (z-score)	GalNAc4S6S(b1-4)GlcNAc	0.428
same	glycan array binding signal (z-score)	GalNAc6S(b1-4)GlcNAc	-0.863
